According to article PMC10992996:
These are yes or no findings as the source states them, for the method shown. Binding seen in cells or lysates may run through a third protein. Some entries that bind do so weakly or less than the wild type. Sequences can lack the tags named with a protein.

Protein sequences, listed by entry. Tags and fused reporters are not part of them. Residues count along the entry.
UniProt Q5IJ48, residues 29-1285: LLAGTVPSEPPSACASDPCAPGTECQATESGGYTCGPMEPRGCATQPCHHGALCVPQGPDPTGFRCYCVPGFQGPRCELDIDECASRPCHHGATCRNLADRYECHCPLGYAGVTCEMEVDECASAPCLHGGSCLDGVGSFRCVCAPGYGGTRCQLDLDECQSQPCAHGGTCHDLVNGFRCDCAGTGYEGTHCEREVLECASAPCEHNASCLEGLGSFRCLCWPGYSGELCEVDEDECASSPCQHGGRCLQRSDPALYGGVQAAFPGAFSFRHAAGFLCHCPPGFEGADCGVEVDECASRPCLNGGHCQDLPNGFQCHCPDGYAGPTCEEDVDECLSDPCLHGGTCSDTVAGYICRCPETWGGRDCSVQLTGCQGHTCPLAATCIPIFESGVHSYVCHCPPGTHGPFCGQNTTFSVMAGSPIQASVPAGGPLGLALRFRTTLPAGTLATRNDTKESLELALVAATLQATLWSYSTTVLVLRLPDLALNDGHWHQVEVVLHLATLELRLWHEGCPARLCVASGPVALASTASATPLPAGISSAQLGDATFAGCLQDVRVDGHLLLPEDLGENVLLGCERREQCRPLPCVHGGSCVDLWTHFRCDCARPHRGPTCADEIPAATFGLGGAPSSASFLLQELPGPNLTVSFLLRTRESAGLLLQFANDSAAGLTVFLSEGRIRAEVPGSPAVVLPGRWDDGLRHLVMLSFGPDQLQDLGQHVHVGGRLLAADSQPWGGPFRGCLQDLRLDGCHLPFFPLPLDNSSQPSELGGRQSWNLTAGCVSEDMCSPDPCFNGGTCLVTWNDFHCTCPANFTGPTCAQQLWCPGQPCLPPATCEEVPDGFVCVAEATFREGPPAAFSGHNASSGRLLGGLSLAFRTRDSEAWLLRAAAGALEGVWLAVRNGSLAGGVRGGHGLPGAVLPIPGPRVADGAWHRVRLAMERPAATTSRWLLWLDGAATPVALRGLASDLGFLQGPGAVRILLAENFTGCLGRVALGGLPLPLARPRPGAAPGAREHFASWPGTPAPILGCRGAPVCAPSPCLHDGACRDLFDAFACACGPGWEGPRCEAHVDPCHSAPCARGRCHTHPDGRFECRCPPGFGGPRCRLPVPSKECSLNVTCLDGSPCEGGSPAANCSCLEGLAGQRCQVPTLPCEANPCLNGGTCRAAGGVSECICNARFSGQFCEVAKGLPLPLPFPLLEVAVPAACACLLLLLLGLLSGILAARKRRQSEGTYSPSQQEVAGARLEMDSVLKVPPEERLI

Target: T1, CRB1-FLAG p.C1321S (human) (UniProt P82279)
T1 sequence: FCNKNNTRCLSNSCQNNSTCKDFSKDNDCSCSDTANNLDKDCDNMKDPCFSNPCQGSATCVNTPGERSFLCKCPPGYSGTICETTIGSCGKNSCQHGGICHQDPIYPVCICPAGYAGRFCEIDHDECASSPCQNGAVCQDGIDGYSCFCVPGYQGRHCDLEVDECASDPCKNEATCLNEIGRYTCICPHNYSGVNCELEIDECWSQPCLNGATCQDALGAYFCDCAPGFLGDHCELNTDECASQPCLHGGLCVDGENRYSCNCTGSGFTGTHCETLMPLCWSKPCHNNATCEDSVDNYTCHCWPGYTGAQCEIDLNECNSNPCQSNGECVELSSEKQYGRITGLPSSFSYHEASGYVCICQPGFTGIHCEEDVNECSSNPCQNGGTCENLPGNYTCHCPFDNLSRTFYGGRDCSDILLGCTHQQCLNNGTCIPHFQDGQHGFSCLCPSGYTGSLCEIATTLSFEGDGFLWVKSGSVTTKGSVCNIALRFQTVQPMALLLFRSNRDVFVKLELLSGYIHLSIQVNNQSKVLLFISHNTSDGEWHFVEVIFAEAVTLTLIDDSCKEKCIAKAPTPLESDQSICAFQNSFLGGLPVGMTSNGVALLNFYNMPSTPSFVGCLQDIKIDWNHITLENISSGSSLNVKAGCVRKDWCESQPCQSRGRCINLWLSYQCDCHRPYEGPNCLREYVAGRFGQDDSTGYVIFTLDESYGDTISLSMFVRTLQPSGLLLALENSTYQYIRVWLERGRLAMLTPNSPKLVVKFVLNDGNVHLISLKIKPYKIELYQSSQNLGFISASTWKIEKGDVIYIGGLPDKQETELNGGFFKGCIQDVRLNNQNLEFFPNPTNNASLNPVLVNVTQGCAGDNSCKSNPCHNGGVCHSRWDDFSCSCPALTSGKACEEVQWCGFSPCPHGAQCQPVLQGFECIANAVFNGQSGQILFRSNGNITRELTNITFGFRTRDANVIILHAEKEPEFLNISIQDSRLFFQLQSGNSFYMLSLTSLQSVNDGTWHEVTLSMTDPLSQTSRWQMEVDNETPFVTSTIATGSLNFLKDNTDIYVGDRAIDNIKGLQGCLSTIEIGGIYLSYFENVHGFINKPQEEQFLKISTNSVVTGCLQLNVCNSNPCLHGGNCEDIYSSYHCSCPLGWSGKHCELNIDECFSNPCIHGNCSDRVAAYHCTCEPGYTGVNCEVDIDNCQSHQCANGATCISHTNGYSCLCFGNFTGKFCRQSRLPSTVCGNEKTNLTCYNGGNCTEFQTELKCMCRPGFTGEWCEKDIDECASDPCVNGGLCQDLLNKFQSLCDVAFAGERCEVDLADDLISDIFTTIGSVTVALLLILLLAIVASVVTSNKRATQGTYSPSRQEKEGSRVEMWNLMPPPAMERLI
Assay: co-IP; HEK293T cells co-transfected pairwise with a FLAG and an HA construct, 48 h; lysis in TBS (30 mM Tris-HCl pH 7.4, 150 mM NaCl) with 0.5% Nonidet P40; FLAG-IP on ANTI-FLAG M2 Affinity Gel 60-90 min at 4°C, elution with FLAG peptide; Western blot with HA and FLAG antibodies; for mutants HA/FLAG signal in eluates relative to WT, three biological replicates

Human canonical CRB2 (Crumbs homolog 2) (from UniProt Q5IJ48-1 29-1285)
binding: binds
